# Reference: the supplement of paper PMC6411743
# Protein sequences, listed by entry. Tags and fused reporters are not part of them. Lines headed by an entry give the natural chain unless they say otherwise; changes in a name come on top.
# UniProt Q7Z6E9: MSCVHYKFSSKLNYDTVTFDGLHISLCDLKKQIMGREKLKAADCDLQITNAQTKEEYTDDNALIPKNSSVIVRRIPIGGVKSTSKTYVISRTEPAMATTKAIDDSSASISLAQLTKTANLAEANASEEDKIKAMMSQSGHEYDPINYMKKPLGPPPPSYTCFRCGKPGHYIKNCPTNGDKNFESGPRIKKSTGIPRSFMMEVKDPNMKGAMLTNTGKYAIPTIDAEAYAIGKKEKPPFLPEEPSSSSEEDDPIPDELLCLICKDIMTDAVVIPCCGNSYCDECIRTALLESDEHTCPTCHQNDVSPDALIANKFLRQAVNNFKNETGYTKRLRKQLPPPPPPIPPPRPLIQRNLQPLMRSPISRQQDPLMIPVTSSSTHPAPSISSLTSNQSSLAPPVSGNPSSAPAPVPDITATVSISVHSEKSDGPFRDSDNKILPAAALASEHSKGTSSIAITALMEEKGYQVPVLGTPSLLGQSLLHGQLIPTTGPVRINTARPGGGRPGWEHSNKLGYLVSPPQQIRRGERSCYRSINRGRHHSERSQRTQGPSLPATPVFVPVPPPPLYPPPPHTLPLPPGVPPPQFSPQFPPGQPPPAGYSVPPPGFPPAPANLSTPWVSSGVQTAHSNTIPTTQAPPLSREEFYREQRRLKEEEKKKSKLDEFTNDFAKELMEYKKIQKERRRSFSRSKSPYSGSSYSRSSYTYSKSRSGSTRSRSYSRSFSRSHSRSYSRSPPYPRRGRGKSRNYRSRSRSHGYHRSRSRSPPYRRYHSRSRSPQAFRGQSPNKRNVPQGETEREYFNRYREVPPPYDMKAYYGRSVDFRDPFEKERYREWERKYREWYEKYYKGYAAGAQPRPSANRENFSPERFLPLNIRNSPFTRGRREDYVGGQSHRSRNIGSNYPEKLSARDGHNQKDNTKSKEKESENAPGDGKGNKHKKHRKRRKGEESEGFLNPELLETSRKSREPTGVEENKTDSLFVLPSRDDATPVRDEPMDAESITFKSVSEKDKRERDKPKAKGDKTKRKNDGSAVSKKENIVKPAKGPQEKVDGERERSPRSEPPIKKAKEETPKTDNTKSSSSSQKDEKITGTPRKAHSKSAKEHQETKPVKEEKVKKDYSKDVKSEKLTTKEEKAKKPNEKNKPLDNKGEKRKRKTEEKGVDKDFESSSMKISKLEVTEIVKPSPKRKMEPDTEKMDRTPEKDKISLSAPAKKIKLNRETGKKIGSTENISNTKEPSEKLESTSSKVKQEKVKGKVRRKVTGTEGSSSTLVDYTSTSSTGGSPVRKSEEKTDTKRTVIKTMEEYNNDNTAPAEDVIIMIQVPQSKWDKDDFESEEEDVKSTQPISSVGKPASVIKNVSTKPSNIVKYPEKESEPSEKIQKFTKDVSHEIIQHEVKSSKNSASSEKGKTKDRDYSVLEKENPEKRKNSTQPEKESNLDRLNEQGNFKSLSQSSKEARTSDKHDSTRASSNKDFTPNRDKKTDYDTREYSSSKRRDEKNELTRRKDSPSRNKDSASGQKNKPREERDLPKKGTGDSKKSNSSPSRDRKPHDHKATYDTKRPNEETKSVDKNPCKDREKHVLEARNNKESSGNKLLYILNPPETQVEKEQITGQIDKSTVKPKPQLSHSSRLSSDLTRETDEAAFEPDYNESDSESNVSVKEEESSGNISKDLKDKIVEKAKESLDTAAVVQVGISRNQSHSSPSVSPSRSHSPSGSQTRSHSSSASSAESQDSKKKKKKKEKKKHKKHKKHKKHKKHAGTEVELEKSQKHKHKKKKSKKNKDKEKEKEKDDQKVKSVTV
# UniProt Q8N490: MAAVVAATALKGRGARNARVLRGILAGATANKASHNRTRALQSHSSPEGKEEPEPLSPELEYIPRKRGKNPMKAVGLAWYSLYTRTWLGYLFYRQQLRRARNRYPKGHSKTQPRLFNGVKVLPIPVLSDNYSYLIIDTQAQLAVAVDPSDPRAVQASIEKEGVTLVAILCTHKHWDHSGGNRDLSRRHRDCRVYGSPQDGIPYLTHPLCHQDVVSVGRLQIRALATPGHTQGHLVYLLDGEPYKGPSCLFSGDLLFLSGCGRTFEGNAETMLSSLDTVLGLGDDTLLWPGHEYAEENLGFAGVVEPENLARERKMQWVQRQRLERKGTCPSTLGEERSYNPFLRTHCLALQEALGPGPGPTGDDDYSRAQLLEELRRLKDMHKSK
# UniProt Q8IUH4: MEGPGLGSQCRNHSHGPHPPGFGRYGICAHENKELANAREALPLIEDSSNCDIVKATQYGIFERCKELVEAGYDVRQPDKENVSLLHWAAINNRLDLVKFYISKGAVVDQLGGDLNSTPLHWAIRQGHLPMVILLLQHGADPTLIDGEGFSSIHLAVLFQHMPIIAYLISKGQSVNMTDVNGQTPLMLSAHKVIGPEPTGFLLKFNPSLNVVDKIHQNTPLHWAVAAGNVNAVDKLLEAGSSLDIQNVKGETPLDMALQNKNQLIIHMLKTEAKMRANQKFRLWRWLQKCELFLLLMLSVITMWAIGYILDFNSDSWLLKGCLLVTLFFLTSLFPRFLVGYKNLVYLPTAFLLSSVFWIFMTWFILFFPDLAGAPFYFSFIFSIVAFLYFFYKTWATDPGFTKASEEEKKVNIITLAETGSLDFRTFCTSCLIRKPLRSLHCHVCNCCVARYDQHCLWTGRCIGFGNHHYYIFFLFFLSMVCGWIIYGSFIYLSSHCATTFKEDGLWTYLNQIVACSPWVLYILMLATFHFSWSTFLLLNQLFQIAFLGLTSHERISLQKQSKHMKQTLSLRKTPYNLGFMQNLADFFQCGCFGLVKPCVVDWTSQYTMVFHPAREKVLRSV
# UniProt Q8IV50: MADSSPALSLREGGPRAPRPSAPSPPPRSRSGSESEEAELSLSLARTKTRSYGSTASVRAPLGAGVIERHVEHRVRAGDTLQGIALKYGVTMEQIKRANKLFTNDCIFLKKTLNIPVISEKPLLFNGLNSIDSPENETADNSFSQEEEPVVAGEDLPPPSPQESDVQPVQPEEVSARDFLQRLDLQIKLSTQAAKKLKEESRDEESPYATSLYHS
# UniProt Q8N567: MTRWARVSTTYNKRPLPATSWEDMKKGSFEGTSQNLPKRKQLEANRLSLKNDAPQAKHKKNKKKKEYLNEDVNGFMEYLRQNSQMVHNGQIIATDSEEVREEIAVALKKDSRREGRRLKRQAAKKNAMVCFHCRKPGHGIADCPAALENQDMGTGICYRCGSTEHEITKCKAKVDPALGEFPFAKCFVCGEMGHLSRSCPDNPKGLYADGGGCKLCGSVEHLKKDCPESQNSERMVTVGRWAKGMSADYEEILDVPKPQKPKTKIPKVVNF
# UniProt Q8IYL3: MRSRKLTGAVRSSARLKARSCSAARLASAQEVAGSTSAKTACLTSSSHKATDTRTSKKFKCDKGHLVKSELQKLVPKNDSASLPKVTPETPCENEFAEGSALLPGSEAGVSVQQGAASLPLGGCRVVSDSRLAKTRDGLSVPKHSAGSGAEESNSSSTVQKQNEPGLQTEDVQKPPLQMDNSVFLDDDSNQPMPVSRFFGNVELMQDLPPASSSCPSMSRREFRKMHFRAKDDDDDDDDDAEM
# UniProt Q86VX2, whole entry: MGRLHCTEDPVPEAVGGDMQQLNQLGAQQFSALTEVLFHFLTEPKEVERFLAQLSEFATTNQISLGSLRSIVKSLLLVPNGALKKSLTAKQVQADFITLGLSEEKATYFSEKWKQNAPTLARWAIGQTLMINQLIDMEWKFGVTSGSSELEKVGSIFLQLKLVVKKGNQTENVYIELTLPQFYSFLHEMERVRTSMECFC
# UniProt Q8N8A6: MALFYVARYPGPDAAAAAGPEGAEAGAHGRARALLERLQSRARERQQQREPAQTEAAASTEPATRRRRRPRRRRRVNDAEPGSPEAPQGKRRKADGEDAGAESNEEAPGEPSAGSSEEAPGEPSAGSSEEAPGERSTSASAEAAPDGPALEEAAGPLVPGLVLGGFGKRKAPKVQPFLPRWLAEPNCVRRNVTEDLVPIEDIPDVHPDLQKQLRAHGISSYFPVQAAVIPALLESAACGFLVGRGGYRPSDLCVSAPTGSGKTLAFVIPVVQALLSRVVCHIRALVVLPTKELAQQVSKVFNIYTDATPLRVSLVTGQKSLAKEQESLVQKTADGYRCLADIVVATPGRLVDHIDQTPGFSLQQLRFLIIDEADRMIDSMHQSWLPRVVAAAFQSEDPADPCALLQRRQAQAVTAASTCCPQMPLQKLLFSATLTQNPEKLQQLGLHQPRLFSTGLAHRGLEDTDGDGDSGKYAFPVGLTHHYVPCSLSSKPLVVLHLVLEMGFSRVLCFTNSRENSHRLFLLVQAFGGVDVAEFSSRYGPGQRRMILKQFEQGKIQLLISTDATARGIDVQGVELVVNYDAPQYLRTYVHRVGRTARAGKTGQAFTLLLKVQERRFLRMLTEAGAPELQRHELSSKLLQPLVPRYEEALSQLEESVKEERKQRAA
# UniProt Q8N3Z6: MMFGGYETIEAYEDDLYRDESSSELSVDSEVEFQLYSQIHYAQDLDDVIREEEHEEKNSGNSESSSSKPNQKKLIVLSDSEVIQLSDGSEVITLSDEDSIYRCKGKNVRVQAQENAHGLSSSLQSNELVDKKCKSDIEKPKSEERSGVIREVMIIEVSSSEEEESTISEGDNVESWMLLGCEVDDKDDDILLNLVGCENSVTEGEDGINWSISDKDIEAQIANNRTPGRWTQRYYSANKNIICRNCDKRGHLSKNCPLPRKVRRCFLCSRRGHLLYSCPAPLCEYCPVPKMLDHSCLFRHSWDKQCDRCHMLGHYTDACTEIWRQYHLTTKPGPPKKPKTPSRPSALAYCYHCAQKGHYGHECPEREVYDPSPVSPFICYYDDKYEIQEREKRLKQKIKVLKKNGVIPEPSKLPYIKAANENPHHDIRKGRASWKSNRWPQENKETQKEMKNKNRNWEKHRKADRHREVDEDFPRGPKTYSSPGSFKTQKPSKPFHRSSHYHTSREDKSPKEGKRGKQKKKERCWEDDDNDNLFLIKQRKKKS
# UniProt Q8N128: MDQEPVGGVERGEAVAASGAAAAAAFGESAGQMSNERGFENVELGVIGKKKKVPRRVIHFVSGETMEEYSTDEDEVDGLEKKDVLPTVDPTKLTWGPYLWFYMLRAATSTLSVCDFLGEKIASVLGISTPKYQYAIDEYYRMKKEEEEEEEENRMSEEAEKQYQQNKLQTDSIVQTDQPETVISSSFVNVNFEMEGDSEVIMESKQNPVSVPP
# UniProt Q8IVD9: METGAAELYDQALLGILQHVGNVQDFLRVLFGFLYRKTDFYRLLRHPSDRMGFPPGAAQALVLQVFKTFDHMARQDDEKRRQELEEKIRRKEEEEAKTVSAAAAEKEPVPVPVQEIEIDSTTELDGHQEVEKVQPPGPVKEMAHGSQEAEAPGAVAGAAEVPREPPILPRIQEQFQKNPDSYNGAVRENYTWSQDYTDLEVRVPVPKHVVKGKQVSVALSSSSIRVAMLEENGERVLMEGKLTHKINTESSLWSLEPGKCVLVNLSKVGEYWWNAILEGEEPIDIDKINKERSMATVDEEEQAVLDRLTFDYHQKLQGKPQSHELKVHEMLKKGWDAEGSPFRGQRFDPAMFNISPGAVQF
# UniProt Q8IXW5, whole entry: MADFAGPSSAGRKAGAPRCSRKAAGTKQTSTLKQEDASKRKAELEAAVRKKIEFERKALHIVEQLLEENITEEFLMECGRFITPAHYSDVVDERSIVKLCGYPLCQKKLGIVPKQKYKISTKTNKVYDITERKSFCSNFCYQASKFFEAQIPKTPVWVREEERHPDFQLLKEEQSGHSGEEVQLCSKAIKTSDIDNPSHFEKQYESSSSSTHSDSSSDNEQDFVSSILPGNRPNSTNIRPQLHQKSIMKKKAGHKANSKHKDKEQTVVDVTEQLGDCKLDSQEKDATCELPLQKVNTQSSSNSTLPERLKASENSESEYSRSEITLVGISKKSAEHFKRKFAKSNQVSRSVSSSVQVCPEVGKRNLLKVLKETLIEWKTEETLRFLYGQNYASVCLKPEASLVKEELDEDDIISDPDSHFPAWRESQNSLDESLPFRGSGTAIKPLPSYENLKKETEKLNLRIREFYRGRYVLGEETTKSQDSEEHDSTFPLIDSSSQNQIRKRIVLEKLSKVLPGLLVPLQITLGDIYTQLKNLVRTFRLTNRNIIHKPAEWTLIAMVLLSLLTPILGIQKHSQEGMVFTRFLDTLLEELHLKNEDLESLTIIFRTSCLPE
# UniProt Q8IX90, whole entry: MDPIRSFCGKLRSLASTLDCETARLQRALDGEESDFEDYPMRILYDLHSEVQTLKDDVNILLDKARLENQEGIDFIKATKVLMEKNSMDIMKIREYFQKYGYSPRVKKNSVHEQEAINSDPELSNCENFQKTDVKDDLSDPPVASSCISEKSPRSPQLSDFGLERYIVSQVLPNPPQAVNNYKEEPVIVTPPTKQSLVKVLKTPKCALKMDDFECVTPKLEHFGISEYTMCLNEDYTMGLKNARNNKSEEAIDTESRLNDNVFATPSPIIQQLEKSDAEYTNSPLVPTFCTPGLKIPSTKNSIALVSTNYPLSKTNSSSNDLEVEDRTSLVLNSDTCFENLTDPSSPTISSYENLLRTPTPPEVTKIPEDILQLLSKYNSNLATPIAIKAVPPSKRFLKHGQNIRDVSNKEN
# ± gives the standard deviation of the averaged measurements. This is a selection; strong and weak results do not stand in their true shares.
# Compound: Nc1ncnc2c1ncn2[C@@H]1O[C@H](COP(=O)(O)OP(=O)(O)NP(=O)(O)O)[C@@H](O)[C@H]1O [adenylyl imidodiphosphate]
# Assay: NP40-soluble protein abundance relative to vehicle (solubility fold change) (ratio); higher = more soluble protein in presence of AMP-PNP
# Summary of the method: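 Data come from three independent experiments in which Dounce-homogenised Jurkat crude lysate was treated at eight concentrations from 0.1 to 10 mM. Treatment ran 10 min at room temperature and then 3 min at 37 °C, after which 0.8% NP40 and benzonase were added for 60 min at 4 °C before ultracentrifugation. The supernatant underwent TMT labelling and LC-MS/MS, and vsn-normalised intensities were expressed as fold change against the detergent-processed vehicle in each replicate.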
Target,NP40-soluble protein abundance (concentration: 1mM),NP40-soluble protein abundance (concentration: 2mM),NP40-soluble protein abundance (concentration: 4mM),NP40-soluble protein abundance (concentration: 6mM),NP40-soluble protein abundance (concentration: 8mM),NP40-soluble protein abundance (concentration: 10mM)
UniProt Q7Z7A3,0.997 ± 0.015,1 ± 0.011,1.02 ± 0.029,1.02 ± 0.022,1.026 ± 0.004,1.024 ± 0.0013
UniProt Q86XI2 and related entries,0.9646 ± 0.0089,0.952 ± 0.066,0.978 ± 0.067,0.984 ± 0.054,0.977 ± 0.019,0.954 ± 0.069
SRBD1 (UniProt Q8N5C6),0.986 ± 0.018,0.998 ± 0.036,1.03 ± 0.019,1.08 ± 0.015,1.07 ± 0.033,1.14 ± 0.043
UniProt Q7Z6E9 and related entries,1.09 ± 0.036,1.16 ± 0.068,1.15 ± 0.02,1.19 ± 0.096,1.19 ± 0.076,1.27 ± 0.08
UniProt Q8IWY9 and related entries,0.971 ± 0.023,0.982 ± 0.023,0.977 ± 0.023,0.976 ± 0.027,0.969 ± 0.034,0.98 ± 0.082
UniProt Q86U70 and related entries,0.966 ± 0.028,0.922 ± 0.022,0.969 ± 0.036,0.967 ± 0.027,0.98 ± 0.011,0.991 ± 0.02
UniProt Q8N490 and related entries,1.01 ± 0.035,0.9967 ± 0.0088,0.988 ± 0.021,0.995 ± 0.029,0.974 ± 0.027,1 ± 0.018
UniProt Q8IUH4 and related entries,0.971 ± 0.038,0.957 ± 0.055,1.02 ± 0.076,0.955 ± 0.039,0.932 ± 0.02,0.966 ± 0.077
UniProt Q8N4C8 and related entries,1.05 ± 0.033,1.1 ± 0.066,1.06 ± 0.0092,1.05 ± 0.058,1.02 ± 0.024,1.08 ± 0.05
UniProt Q7Z7A1 and related entries,0.986 ± 0.013,1.01 ± 0.062,1 ± 0.015,0.981 ± 0.017,0.9496 ± 0.0093,0.989 ± 0.045
LYSMD2 (UniProt Q8IV50),0.964 ± 0.068,0.903 ± 0.025,0.943 ± 0.051,0.931 ± 0.053,0.97 ± 0.062,0.902 ± 0.045
ZCCHC9 (UniProt Q8N567),1.07 ± 0.035,1.11 ± 0.031,1.13 ± 0.072,1.14 ± 0.014,1.15 ± 0.02,1.18 ± 0.056
PTGR2 (UniProt Q8N8N7),1.01 ± 0.049,0.998 ± 0.064,0.982 ± 0.026,0.978 ± 0.012,0.972 ± 0.04,0.978 ± 0.044
C1orf174 (UniProt Q8IYL3),1.008 ± 0.0078,1.1 ± 0.1,1.05 ± 0.049,1.1 ± 0.049,1.11 ± 0.041,1.11 ± 0.08
DCP1B (UniProt Q8IZD4),0.996 ± 0.035,1.05 ± 0.04,1.03 ± 0.011,0.993 ± 0.018,0.964 ± 0.013,1.02 ± 0.021
UniProt Q86VX2 and related entries,1.01 ± 0.016,0.992 ± 0.039,0.99056 ± 0.00036,1.06 ± 0.019,1.034 ± 0.0047,1.058 ± 0.0047
FAM126B (UniProt Q8IXS8),0.998 ± 0.043,1.01 ± 0.023,0.994 ± 0.024,1.01 ± 0.022,1.01 ± 0.031,1.02 ± 0.017
DDX51 (UniProt Q8N8A6),1.06 ± 0.018,1.09 ± 0.02,1.15 ± 0.059,1.2 ± 0.038,1.24 ± 0.033,1.423 ± 0.014
ZCCHC7 (UniProt Q8N3Z6),1.097 ± 0.0021,1.08 ± 0.071,1.1 ± 0.02,1.07 ± 0.017,1.1 ± 0.017,1.1 ± 0.036
UniProt Q8N9B5 and related entries,1.02 ± 0.014,1.02 ± 0.026,1.03 ± 0.027,1.04 ± 0.023,1.01 ± 0.0097,1.06 ± 0.043
GSPT2 (UniProt Q8IYD1),1.07 ± 0.028,1.06 ± 0.04,1.06 ± 0.03,1.05 ± 0.014,1.04 ± 0.032,1.06 ± 0.044
UniProt Q8N128 and related entries,1.03 ± 0.043,1.05 ± 0.031,1.04 ± 0.024,1.02 ± 0.0077,0.981 ± 0.02,1.01 ± 0.056
UniProt Q8IYU8 and related entries,0.996 ± 0.056,0.956 ± 0.041,1.004 ± 0.0081,0.9874 ± 0.0039,1.01 ± 0.017,0.974 ± 0.018
ZADH2 (UniProt Q8N4Q0),0.986 ± 0.039,0.961 ± 0.051,1 ± 0.046,0.969 ± 0.06,0.996 ± 0.034,0.984 ± 0.043
UniProt Q8IZ21 and related entries,0.969 ± 0.046,1.02 ± 0.017,0.98 ± 0.038,0.962 ± 0.072,0.967 ± 0.032,0.986 ± 0.081
NUDCD3 (UniProt Q8IVD9),1.03 ± 0.047,1.09 ± 0.02,1 ± 0.047,0.977 ± 0.058,0.94 ± 0.067,1.01 ± 0.055
MRPL50 (UniProt Q8N5N7),1 ± 0.1,1.02 ± 0.073,0.982 ± 0.1,0.945 ± 0.12,0.955 ± 0.088,0.939 ± 0.11
ZC3H7A (UniProt Q8IWR0),1.008 ± 0.0064,1.02 ± 0.036,1.11 ± 0.029,1.12 ± 0.025,1.12 ± 0.044,1.16 ± 0.049
UniProt Q8IXW5 and related entries,1.06 ± 0.052,1.05 ± 0.034,1.03 ± 0.04,0.988 ± 0.096,0.961 ± 0.059,0.977 ± 0.062
UniProt Q8IX90,1.04 ± 0.0094,1.06 ± 0.066,1.04 ± 0.017,0.987 ± 0.018,0.978 ± 0.022,0.995 ± 0.028

# Fetched one by one from above:
Target,NP40-soluble protein abundance (concentration: 1mM),NP40-soluble protein abundance (concentration: 2mM),NP40-soluble protein abundance (concentration: 4mM),NP40-soluble protein abundance (concentration: 6mM),NP40-soluble protein abundance (concentration: 8mM),NP40-soluble protein abundance (concentration: 10mM)
LYSMD2 (UniProt Q8IV50),0.964 ± 0.068,0.903 ± 0.025,0.943 ± 0.051,0.931 ± 0.053,0.97 ± 0.062,0.902 ± 0.045
UniProt Q8IWY9 and related entries,0.971 ± 0.023,0.982 ± 0.023,0.977 ± 0.023,0.976 ± 0.027,0.969 ± 0.034,0.98 ± 0.082
